Paper doi:10.1101/2025.07.23.666473
No constants are given. Whether binding was seen depends on the method and setting. In cells and extracts the contact can be indirect. A yes stands for co-enrichment or nearness to the bait. Other partners may have been found.

B1: HDAC6 (enzyme, UniProt Q9Z2V5 1-1149)
chain: MTSTGQDSSTRQRKSRHNPQSPLQESSATLKRGGKKCAVPHSSPNLAEVKKKGKMKKLSQPAEEDLVVGLQGLDLNPETRVPVGTGLVFDEQLNDFHCLWDDSFPESPERLHAIREQLILEGLLGRCVSFQARFAEKEELMLVHSLEYIDLMETTQYMNEGELRVLAETYDSVYLHPNSYSCACLATGSVLRLVDALMGAEIRNGMAVIRPPGHHAQHNLMDGYCMFNHLAVAARYAQKKHRIQRVLIVDWDVHHGQGTQFIFDQDPSVLYFSIHRYEHGRFWPHLKASNWSTIGFGQGQGYTINVPWNQTGMRDADYIAAFLHILLPVASEFQPQLVLVAAGFDALHGDPKGEMAATPAGFAHLTHLLMGLAGGKLILSLEGGYNLRALAKGVSASLHTLLGDPCPMLESCVVPCASAQTSIYCTLEALEPFWEVLERSVETQEEDEVEEAVLEEEEEEGGWEATALPMDTWPLLQNRTGLVYDEKMMSHCNLWDNHHPETPQRILRIMCHLEEVGLAARCLILPARPALDSELLTCHSAEYVEHLRTTEKMKTRDLHREGANFDSIYICPSTFACAKLATGAACRLVEAVLSGEVLNGIAVVRPPGHHAEPNAACGFCFFNSVAVAARHAQIIAGRALRILIVDWDVHHGNGTQHIFEDDPSVLYVSLHRYDRGTFFPMGDEGASSQVGRDAGIGFTVNVPWNGPRMGDADYLAAWHRLVLPIAYEFNPELVLISAGFDAAQGDPLGGCQVTPEGYAHLTHLLMGLAGGRIILILEGGYNLASISESMAACTHSLLGDPPPQLTLLRPPQSGALVSISEVIQVHRKYWRSLRLMKMEDKEECSSSRLVIKKLPPTASPVSAKEMTTPKGKVPEESVRKTIAALPGKESTLGQAKSKMAKAVLAQGQSSEQAAKGTTLDLATSKETVGGATTDLWASAAAPENFPNQTTSVEALGETEPTPPASHTNKQTTGASPLQGVTAQQSLQLGVLSTLELSREAEEAHDSEEGLLGEAAGGQDMNSLMLTQGFGDFNTQDVFYAVTPLSWCPHLMAVCPIPAAGLDVSQPCKTCGTVQENWVCLTCYQVYCSRYVNAHMVCHHEASEHPLVLSCVDLSTWCYVCQAYVHHEDLQDVKNAAHQNKFGEDMPHSH
B2: cavin-2 (protein, UniProt Q63918 1-418)
chain: MGEDAAQAEKFQHPNTDMLQEKPSSPSPMPSSTPSPSLNLGSTEEAIRDNSQVNAVTVHTLLDKLVNMLDAVRENQHNMEQRQINLEGSVKGIQNDLTKLSKYQASTSNTVSKLLEKSRKVSAHTRAVRERLERQCVQVKRLENNHAQLLRRNHFKVLIFQEESEIPASVFVKEPVPSAAEGKEELADENKSLEETLHNVDLSSDDELPRDEEALEDSAEEKMEESRAEKIKRSSLKKVDSLKKAFSRQNIEKKMNKLGTKIVSVERREKIKKSLTPNHQKASSGKSSPFKVSPLSFGRKKVREGESSVENETKLEDQMQEDREEGSFTEGLSEASLPSGLMEGSAEDAEKSARRGNNSAVGSNADLTIEEDEEEEPVALQQAQQVRYESGYMLNSEEMEEPSEKQVQPAVLHVDQTA
B3: cavin-4 (protein, UniProt A2AMM0 1-362)
chain: MEHNGSASNAGKIHQNRLSSVTEDEDQDAALTIVTVLDRVASVVDSVQASQKRIEERHREMGNAIKSVQIDLLKLSQSHSNTGYVVNKLFEKTRKVSAHIKDVKARVEKQQVRVTKVETKQEEIMKKNKFRVVIFQEDIPCPASLSVVKDRSLPENQEEAEEVFDPPIELSSDEEYYVEESRSARLRKSGKEHIDHIKKAFSRENMQKTRQTLDKKVSGIRTRIVTPERRERLRQSGERLRQSGERLRQSGERFKKSISSAAPSKEAFKIRSLRKAKDPKAEGQEVDRGMGVDIISGSLALGPIHEFHSDEFSETEKEVTKGGYSPQEGGDPPTPEPLKVTFKPQVRVEDDESLLLELKQSS

Target: TurboID-hFGF13VY (human)
Experiment: proximity labelling

binding, binds:
B1
B2
B3
